Source: publication PMC11306434
No constants are given. Whether binding was seen depends on the method and setting. Binding seen in cells or lysates may run through a third protein. Some results given as binding are weak or reduced against the parent protein; the word gives no strength.

Sequences of proteins named here, by UniProt entry; tags and fusion partners are left off. Residues count along the entry.
UniProt Q9NXA8, residues 37-310: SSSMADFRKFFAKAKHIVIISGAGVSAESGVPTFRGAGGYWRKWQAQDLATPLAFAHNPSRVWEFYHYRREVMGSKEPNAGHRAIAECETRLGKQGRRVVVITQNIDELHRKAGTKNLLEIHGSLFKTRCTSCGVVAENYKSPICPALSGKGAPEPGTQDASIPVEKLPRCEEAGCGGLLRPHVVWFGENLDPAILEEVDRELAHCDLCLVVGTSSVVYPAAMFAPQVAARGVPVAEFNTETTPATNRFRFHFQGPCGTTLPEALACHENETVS

Biological target: Flag-SIRT5 (UniProt Q9NXA8)
Experiment: co-IP; 293T cells co-transfected with Flag-SIRT5 and HA-p53; lysate (200 ug protein, IP lysis buffer with protease and phosphatase inhibitors) with anti-Flag or anti-HA antibody at 4 C for 4 h, protein A/G Sepharose beads, Western blot

With HA-p53 (from UniProt P04637 1-393) the binding was “binds”.
